{
  "source": "paper PMC12767118",
  "target": "ZDHHC2 C‐terminal fragment (GST pull‐down assay)",
  "assay": "pull-down; GST fusion protein (E. coli BL21, pET‐GST) captured overnight at 4 °C on glutathione–agarose beads, then mixed with cell lysate of the target protein overnight at 4 °C; SDS-PAGE; only the target purified",
  "note": "No constants are given. Whether binding was seen depends on the method and setting. In cells and extracts the contact can be indirect. A result given as binding can be weak or reduced; the word gives no strength. Where a sequence is shown, tags or fusion partners need not be part of it.",
  "data": [
    {"binder": "recombinant USP19 (GST pull‐down assays) (enzyme, UniProt O94966 1-1318) MSGGASATGPRRGPPGLEDTTSKKKQKDRANQESKDGDPRKETGSRYVAQAGLEPLASGDPSASASHAAGITGSRHRTRLFFPSSSGSASTPQEEQTKEGACEDPHDLLATPTPELLLDWRQSAEEVIVKLRVGVGPLQLEDVDAAFTDTDCVVRFAGGQQWGGVFYAEIKSSCAKVQTRKGSLLHLTLPKKVPMLTWPSLLVEADEQLCIPPLNSQTCLLGSEENLAPLAGEKAVPPGNDPVSPAMVRSRNPGKDDCAKEEMAVAADAATLVDEPESMVNLAFVKNDSYEKGPDSVVVHVYVKEICRDTSRVLFREQDFTLIFQTRDGNFLRLHPGCGPHTTFRWQVKLRNLIEPEQCTFCFTASRIDICLRKRQSQRWGGLEAPAARVGGAKVAVPTGPTPLDSTPPGGAPHPLTGQEEARAVEKDKSKARSEDTGLDSVATRTPMEHVTPKPETHLASPKPTCMVPPMPHSPVSGDSVEEEEEEEKKVCLPGFTGLVNLGNTCFMNSVIQSLSNTRELRDFFHDRSFEAEINYNNPLGTGGRLAIGFAVLLRALWKGTHHAFQPSKLKAIVASKASQFTGYAQHDAQEFMAFLLDGLHEDLNRIQNKPYTETVDSDGRPDEVVAEEAWQRHKMRNDSFIVDLFQGQYKSKLVCPVCAKVSITFDPFLYLPVPLPQKQKVLPVFYFAREPHSKPIKFLVSVSKENSTASEVLDSLSQSVHVKPENLRLAEVIKNRFHRVFLPSHSLDTVSPSDTLLCFELLSSELAKERVVVLEVQQRPQVPSVPISKCAACQRKQQSEDEKLKRCTRCYRVGYCNQLCQKTHWPDHKGLCRPENIGYPFLVSVPASRLTYARLAQLLEGYARYSVSVFQPPFQPGRMALESQSPGCTTLLSTGSLEAGDSERDPIQPPELQLVTPMAEGDTGLPRVWAAPDRGPVPSTSGISSEMLASGPIEVGSLPAGERVSRPEAAVPGYQHPSEAMNAHTPQFFIYKIDSSNREQRLEDKGDTPLELGDDCSLALVWRNNERLQEFVLVASKELECAEDPGSAGEAARAGHFTLDQCLNLFTRPEVLAPEEAWYCPQCKQHREASKQLLLWRLPNVLIVQLKRFSFRSFIWRDKINDLVEFPVRNLDLSKFCIGQKEEQLPSYDLYAVINHYGGMIGGHYTACARLPNDRSSQRSDVGWRLFDDSTVTTVDESQVVTRYAYVLFYRRRNSPVERPPRAGHSEHHPDLGPAAEAAASQASRIWQELEAEEEPVPEGSGPLGPWGPQDWVGPLPRGPTTPDEGCLRYFVLGTVAALVALVLNVFYPLVSQSRWR", "values": [
      {"measurement": "binding", "result": "binds"}
    ]}
  ]
}
